# Source: the supplement of paper PMC8728848
# This is one part of the list.
# B1: CD4 (Rattus norvegicus), P05540 (protein)
# chain: MCRGFSFRHLLPLLLLQLSKLLVVTQGSTSITAYKSEGESAEFSFPLNLGEESLQGELRWKAEKAPSSQSWITFSLKNQKVSVQKSTSNPKFQLSETLPLTLQIPQVSLQFAGSGNLTLTLDRGILYQEVNLVVMKVTQPDSNTLTCEVMGPTSPKMRLILKQENQEARVSRQEKVIQVQAPEAGVWQCLLSEGEEVKMDSKIQVLSKGLNSGGGSGGGTGGGDLAPQMLRELQETNAALQDVRELLRQQVKEITFLKNTVMECDACGLDRNLPPLAPLGPHPETLVKVKDAEDQLGARVGYIELDLNSGKILESFRPEERFPMMSTFKVLLCGAVLSRIDAGQEQLGRRIHYSQNDLVEYSPVTEKHLTDGMTVRELCSAAITMSDNTAANLLLTTIGGPKELTAFLHNMGDHVTRLDRWEPELNEAIPNDERDTTMPVAMATTLRKLLTGELLTLASRQQLIDWMEADKVAGPLLRSALPAGWFIADKSGAGERGSRGIIAALGPDGKPSRIVVIYTTGSQATMDERNRQIAEIGASLIKHW
# Columns and labels:
# Assay in all cases: glycan array binding signal (z-score within array); higher = stronger binding
# Conditions in all cases: glycan notation: IUPAC condensed, linker removed
# [1] = target: GlcNAc(b1-3)Gal(b1-4)GlcNAc(b1-3)Gal(b1-4)GlcNAc(b1-3)GalNAc
# Procedure, shortened: (§1)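 Glycan array data were curated from 3228 arrays in the Consortium for Functional Glycomics database and kept only where the protein sequence was available. Glycan names were converted to IUPAC-condensed notation, and columns mapping to the same glycan were averaged. The binding signal is a within-array Z-score, averaged across arrays of the same protein sequence at different concentrations or buffers and across linkers. Negative Z-scores can be read as non-binding.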
# [2] = target: GlcNAc(b1-3)Gal(b1-4)GlcNAc(b1-3)GalNAc
# Procedure, shortened: as §1
# [3] = target: GlcNAc(b1-3)Gal(b1-4)GlcNAc(b1-3)[GlcNAc(b1-3)Gal(b1-4)GlcNAc(b1-3)]GalNAc
# Procedure, shortened: as §1
# [4] = target: GlcNAc(b1-3)Gal(b1-4)GlcNAc(b1-6)[Gal(b1-3)]GalNAc
# Procedure, shortened: as §1
# [5] = target: GlcNAc(b1-3)Gal(b1-4)GlcNAc(b1-6)[GlcNAc(b1-3)Gal(b1-3)]GalNAc
# Procedure, shortened: as §1
# [6] = target: GlcNAc(b1-3)Gal(b1-4)GlcNAc(b1-6)[GlcNAc(b1-3)]Gal(b1-4)GlcNAc
# Procedure, shortened: as §1
# GlcNAc(b1-3)GalNAc = target: GlcNAc(b1-3)GalNAc
# Procedure, shortened: as §1
# GlcNAc(b1-3)Man = target: GlcNAc(b1-3)Man
# Procedure, shortened: as §1
# [7] = target: GlcNAc(b1-3)[GlcNAc(b1-4)][GlcNAc(b1-6)]GlcNAc
# Procedure, shortened: as §1
# [8] = target: GlcNAc(b1-3)[GlcNAc(b1-6)]Gal(b1-4)GlcNAc
# Procedure, shortened: as §1
# [9] = target: GlcNAc(b1-3)[GlcNAc(b1-6)]GalNAc
# Procedure, shortened: as §1
# [10] = target: GlcNAc(b1-4)Gal(b1-4)GlcNAc
# Procedure, shortened: as §1
# GlcNAc(b1-4)GlcNAc = target: GlcNAc(b1-4)GlcNAc
# Procedure, shortened: as §1
# [11] = target: GlcNAc(b1-4)GlcNAc(b1-4)GlcNAc
# Procedure, shortened: as §1
# [12] = target: GlcNAc(b1-4)GlcNAc(b1-4)GlcNAc(b1-4)GlcNAc(b1-4)GlcNAc
# Procedure, shortened: as §1
# [13] = target: GlcNAc(b1-4)GlcNAc(b1-4)GlcNAc(b1-4)GlcNAc(b1-4)GlcNAc(b1-4)GlcNAc
# Procedure, shortened: as §1
# [14] = target: GlcNAc(b1-4)[GlcNAc(b1-6)]GalNAc
# Procedure, shortened: as §1
# [15] = target: GlcNAc(b1-6)Gal(b1-4)GlcNAc
# Procedure, shortened: as §1
# GlcNAc(b1-6)GalNAc = target: GlcNAc(b1-6)GalNAc
# Procedure, shortened: as §1
# [16] = target: GlcNAc6S(b1-3)Gal(b1-4)GlcNAc
# Procedure, shortened: as §1
# Kdn(a2-3)Gal(b1-3)GalNAc = target: Kdn(a2-3)Gal(b1-3)GalNAc
# Procedure, shortened: as §1
# Kdn(a2-3)Gal(b1-3)GlcNAc = target: Kdn(a2-3)Gal(b1-3)GlcNAc
# Procedure, shortened: as §1
# Kdn(a2-3)Gal(b1-4)Glc = target: Kdn(a2-3)Gal(b1-4)Glc
# Procedure, shortened: as §1
# Kdn(a2-3)Gal(b1-4)GlcNAc = target: Kdn(a2-3)Gal(b1-4)GlcNAc
# Procedure, shortened: as §1
# [17] = target: Kdn(a2-3)Gal(b1-4)[Fuc(a1-3)]GlcNAc
# Procedure, shortened: as §1
# Kdn(a2-6)Gal(b1-4)GlcNAc = target: Kdn(a2-6)Gal(b1-4)GlcNAc
# Procedure, shortened: as §1
# [18] = target: Man(a1-2)Man(a1-2)Man(a1-3)Man
# Procedure, shortened: as §1
# [19] = target: Man(a1-2)Man(a1-2)Man(a1-6)[Man(a1-3)]Man
# Procedure, shortened: as §1
# Man(a1-2)Man(a1-3)Man = target: Man(a1-2)Man(a1-3)Man
# Procedure, shortened: as §1
# [20] = target: Man(a1-2)Man(a1-3)[Man(a1-2)Man(a1-6)]Man
# Procedure, shortened: as §1
# [21] = target: Man(a1-2)Man(a1-3)[Man(a1-2)Man(a1-6)]Man(a1-6)[Man(a1-2)Man(a1-2)Man(a1-3)]Man
# Procedure, shortened: as §1
# [22] = target: Man(a1-2)Man(a1-3)[Man(a1-2)Man(a1-6)]Man(a1-6)[Man(a1-2)Man(a1-2)Man(a1-3)]Man(b1-4)GlcNAc(b1-4)GlcNAc
# Procedure, shortened: as §1
# [23] = target: Man(a1-2)Man(a1-3)[Man(a1-6)]Man(a1-6)[Man(a1-2)Man(a1-3)]Man(b1-4)GlcNAc(b1-4)GlcNAc
# Procedure, shortened: as §1
# [24] = target: Man(a1-2)Man(a1-6)[Man(a1-3)]Man(a1-6)[Man(a1-2)Man(a1-2)Man(a1-3)]Man
# Procedure, shortened: as §1
# [25] = target: Man(a1-2)Man(a1-6)[Man(a1-3)]Man(a1-6)[Man(a1-2)Man(a1-2)Man(a1-3)]Man(b1-4)GlcNAc(b1-4)GlcNAc
# Procedure, shortened: as §1
# Man(a1-3)[Man(a1-6)]Man = target: Man(a1-3)[Man(a1-6)]Man
# Procedure, shortened: as §1
# [26] = target: Man(a1-3)[Man(a1-6)]Man(a1-6)[Man(a1-2)Man(a1-3)]Man(b1-4)GlcNAc(b1-4)GlcNAc
# Procedure, shortened: as §1
# [27] = target: Man(a1-3)[Man(a1-6)]Man(a1-6)[Man(a1-3)]Man
# Procedure, shortened: as §1
# [28] = target: Man(a1-3)[Man(a1-6)]Man(a1-6)[Man(a1-3)]Man(b1-4)GlcNAc(b1-4)GlcNAc
# Procedure, shortened: as §1
# [29] = target: Man(a1-3)[Man(a1-6)]Man(b1-4)GlcNAc(b1-4)GlcNAc
# Procedure, shortened: as §1
# [30] = target: Man(a1-3)[Man(a1-6)]Man(b1-4)GlcNAc(b1-4)[Fuc(a1-6)]GlcNAc
# Procedure, shortened: as §1
# Man(a1-6)Man = target: Man(a1-6)Man
# Procedure, shortened: as §1
# Man(b1-4)GlcNAc = target: Man(b1-4)GlcNAc
# Procedure, shortened: as §1
# MurNAc(b1-4)GlcNAc = target: MurNAc(b1-4)GlcNAc
# Procedure, shortened: as §1
# Neu5Ac(a2-3)Gal = target: Neu5Ac(a2-3)Gal
# Procedure, shortened: as §1
# [31] = target: Neu5Ac(a2-3)Gal(b1-3)GalNAc
# Procedure, shortened: as §1
# [32] = target: Neu5Ac(a2-3)Gal(b1-3)GalNAc(b1-3)Gal(a1-4)Gal(b1-4)Glc
# Procedure, shortened: as §1
# [33] = target: Neu5Ac(a2-3)Gal(b1-3)GalNAc(b1-4)[Neu5Ac(a2-3)]Gal(b1-4)Glc
# Procedure, shortened: as §1
# [34] = target: Neu5Ac(a2-3)Gal(b1-3)GalNAc(b1-4)[Neu5Ac(a2-8)Neu5Ac(a2-3)]Gal(b1-4)Glc
# Procedure, shortened: as §1
# [35] = target: Neu5Ac(a2-3)Gal(b1-3)GalNAc6S
# Procedure, shortened: as §1
# [36] = target: Neu5Ac(a2-3)Gal(b1-3)GlcNAc
# Procedure, shortened: as §1
# [37] = target: Neu5Ac(a2-3)Gal(b1-3)GlcNAc(b1-2)Man
# Procedure, shortened: as §1
# [38] = target: Neu5Ac(a2-3)Gal(b1-3)GlcNAc(b1-2)Man(a1-3)[GlcNAc(b1-4)][Neu5Ac(a2-3)Gal(b1-3)GlcNAc(b1-2)Man(a1-6)]Man(b1-4)GlcNAc(b1-4)GlcNAc
# Procedure, shortened: as §1
# [39] = target: Neu5Ac(a2-3)Gal(b1-3)GlcNAc(b1-2)Man(a1-3)[Neu5Ac(a2-3)Gal(b1-3)GlcNAc(b1-2)Man(a1-6)]Man(b1-4)GlcNAc(b1-4)GlcNAc
# Procedure, shortened: as §1
# [40] = target: Neu5Ac(a2-3)Gal(b1-3)GlcNAc(b1-3)Gal(b1-3)GlcNAc
# Procedure, shortened: as §1
# [41] = target: Neu5Ac(a2-3)Gal(b1-3)GlcNAc(b1-3)Gal(b1-4)GlcNAc
# Procedure, shortened: as §1
# [42] = target: Neu5Ac(a2-3)Gal(b1-3)GlcNAc(b1-3)GalNAc
# Procedure, shortened: as §1
# [43] = target: Neu5Ac(a2-3)Gal(b1-3)GlcNAc(b1-4)Gal(b1-4)Glc
# Procedure, shortened: as §1
# [44] = target: Neu5Ac(a2-3)Gal(b1-3)GlcNAc(b1-6)GalNAc
# Procedure, shortened: as §1
# [45] = target: Neu5Ac(a2-3)Gal(b1-3)GlcNAc6S
# Procedure, shortened: as §1
binder,measurement,setting,value
B1,glycan array binding signal (z-score),[1],-0.708
same,glycan array binding signal (z-score),[2],-1.2
same,glycan array binding signal (z-score),[3],-0.632
same,glycan array binding signal (z-score),[4],-0.267
same,glycan array binding signal (z-score),[5],-1.14
same,glycan array binding signal (z-score),[6],-0.078
same,glycan array binding signal (z-score),GlcNAc(b1-3)GalNAc,0.014
same,glycan array binding signal (z-score),GlcNAc(b1-3)Man,0.154
same,glycan array binding signal (z-score),[7],-0.073
same,glycan array binding signal (z-score),[8],1.01
same,glycan array binding signal (z-score),[9],-0.65
same,glycan array binding signal (z-score),[10],0.561
same,glycan array binding signal (z-score),GlcNAc(b1-4)GlcNAc,-0.153
same,glycan array binding signal (z-score),[11],0.214
same,glycan array binding signal (z-score),[12],-0.607
same,glycan array binding signal (z-score),[13],0.535
same,glycan array binding signal (z-score),[14],0.046
same,glycan array binding signal (z-score),[15],0.739
same,glycan array binding signal (z-score),GlcNAc(b1-6)GalNAc,-0.286
same,glycan array binding signal (z-score),[16],1.64
same,glycan array binding signal (z-score),Kdn(a2-3)Gal(b1-3)GalNAc,0.559
same,glycan array binding signal (z-score),Kdn(a2-3)Gal(b1-3)GlcNAc,-0.463
same,glycan array binding signal (z-score),Kdn(a2-3)Gal(b1-4)Glc,0.091
same,glycan array binding signal (z-score),Kdn(a2-3)Gal(b1-4)GlcNAc,-0.59
same,glycan array binding signal (z-score),[17],1.05
same,glycan array binding signal (z-score),Kdn(a2-6)Gal(b1-4)GlcNAc,-1.16
same,glycan array binding signal (z-score),[18],-0.58
same,glycan array binding signal (z-score),[19],-0.617
same,glycan array binding signal (z-score),Man(a1-2)Man(a1-3)Man,-1.14
same,glycan array binding signal (z-score),[20],-0.568
same,glycan array binding signal (z-score),[21],0.438
same,glycan array binding signal (z-score),[22],-0.44
same,glycan array binding signal (z-score),[23],-0.933
same,glycan array binding signal (z-score),[24],1.05
same,glycan array binding signal (z-score),[25],-0.08
same,glycan array binding signal (z-score),Man(a1-3)[Man(a1-6)]Man,1.25
same,glycan array binding signal (z-score),[26],0.503
same,glycan array binding signal (z-score),[27],0.386
same,glycan array binding signal (z-score),[28],-0.353
same,glycan array binding signal (z-score),[29],-1.14
same,glycan array binding signal (z-score),[30],-0.602
same,glycan array binding signal (z-score),Man(a1-6)Man,-0.075
same,glycan array binding signal (z-score),Man(b1-4)GlcNAc,-1.87
same,glycan array binding signal (z-score),MurNAc(b1-4)GlcNAc,-1.28
same,glycan array binding signal (z-score),Neu5Ac(a2-3)Gal,0.495
same,glycan array binding signal (z-score),[31],-1.02
same,glycan array binding signal (z-score),[32],-0.046
same,glycan array binding signal (z-score),[33],-0.174
same,glycan array binding signal (z-score),[34],-1.09
same,glycan array binding signal (z-score),[35],-1.23
same,glycan array binding signal (z-score),[36],-0.771
same,glycan array binding signal (z-score),[37],-0.568
same,glycan array binding signal (z-score),[38],-0.328
same,glycan array binding signal (z-score),[39],-0.429
same,glycan array binding signal (z-score),[40],0.207
same,glycan array binding signal (z-score),[41],-0.644
same,glycan array binding signal (z-score),[42],-0.719
same,glycan array binding signal (z-score),[43],-1.28
same,glycan array binding signal (z-score),[44],0.017
same,glycan array binding signal (z-score),[45],-1.76

# Part of the list above, bar-delimited:
binder | measurement | setting | value
B1 | glycan array binding signal (z-score) | GlcNAc(b1-4)GlcNAc | -0.153
same | glycan array binding signal (z-score) | [40] | 0.207

# Copied from the listing for reference:
binder,measurement,setting,value
B1,glycan array binding signal (z-score),[17],1.05
same,glycan array binding signal (z-score),Kdn(a2-6)Gal(b1-4)GlcNAc,-1.16
